# Measurements from PubChem BioAssay AID1671190 (National Center for Advancing Translational Sciences (NCATS), 2021).
# The chains behind the UniProt entries cited, without tags or fusion partners. Where a name states a change or a piece, a line headed by the entry shows the natural chain unless it says otherwise.
# UniProt P18054: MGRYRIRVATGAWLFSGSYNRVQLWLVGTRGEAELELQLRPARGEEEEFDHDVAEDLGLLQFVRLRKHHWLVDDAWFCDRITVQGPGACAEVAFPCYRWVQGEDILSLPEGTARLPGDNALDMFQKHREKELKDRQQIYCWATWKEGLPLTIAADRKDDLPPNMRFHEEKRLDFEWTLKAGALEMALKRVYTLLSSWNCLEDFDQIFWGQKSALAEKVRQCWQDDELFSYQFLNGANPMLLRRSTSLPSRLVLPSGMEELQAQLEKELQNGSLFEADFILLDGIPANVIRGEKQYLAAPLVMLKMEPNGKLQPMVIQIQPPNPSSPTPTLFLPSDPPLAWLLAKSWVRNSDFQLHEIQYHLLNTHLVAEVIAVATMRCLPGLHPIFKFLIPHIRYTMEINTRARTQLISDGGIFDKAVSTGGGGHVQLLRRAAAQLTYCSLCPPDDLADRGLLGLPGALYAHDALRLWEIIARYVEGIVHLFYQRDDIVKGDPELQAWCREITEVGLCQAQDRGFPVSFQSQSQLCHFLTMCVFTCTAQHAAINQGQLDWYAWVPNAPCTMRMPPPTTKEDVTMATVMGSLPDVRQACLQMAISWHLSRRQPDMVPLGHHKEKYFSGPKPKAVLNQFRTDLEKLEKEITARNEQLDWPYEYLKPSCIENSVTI
# In all, about 580,000 compounds went through this assay and about 6,100 (1.1%) were called active. Inconclusive results, whose numbers are uncertain, are shown with a selection of clear calls. The call rests on the fitted dose curve; in most records, active means well fitted inhibition curve with a large enough effect; inconclusive means small, poorly fitted or top-dose-only effect, or another doubt; inactive means no such curve, though single readings can be large or run the other way. Potencies beside an inconclusive call are fits to weak or partial responses and may not hold up.
# Target: Polyunsaturated fatty acid lipoxygenase ALOX12 (Homo sapiens) (UniProt P18054)
# Assay: Primary qHTS assay for inhibitors of human arachidonate 12S-lipoxygenase (ALOX12): Round 2
# Conditions: purified 12hLO, xylenol orange hydroperoxide absorbance; activity change, negative = inhibition: at 108 µM (top of the series) unless noted
# Summary of the method: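 Hydroperoxide product was detected by ferrous iron/xylenol orange as the 573 to 405 nm absorbance ratio. Arachidonic acid at 40 uM (final) was turned over for 30 min at room temperature by 150 nM human 12hLO, pH 7.0 Hepes buffer, after 15 min compound preincubation.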
# On the % scale 0 is the no-effect control and ±100 the full control effect; potency means the concentration at half of the fitted maximal effect.
SMILES,"activity change, negative = inhibition",Potency
COc1ccc(-c2cnc(N)nc2-c2ccc(OCc3ccccc3F)cc2O)cc1OC,inactive: -13.1%,
Cc1ccc(S(=O)(=O)N2CCCC(C(=O)N3CCN(c4ccccc4)CC3)C2)cc1 (configuration not stated),,"inconclusive: 0.631 µM [inhibitor, full curve, poor fit]"
COc1ccc(C(OCCN2CCC[C@@H](C(=O)O)C2)(c2ccc(OC)cc2)c2ccc(OC)cc2)cc1,,"inconclusive: 3.16 µM [inhibitor, full curve, poor fit]"
Cc1ccc(S(=O)(=O)N/N=C2/CC(c3ccccc3)Oc3ccccc32)cc1[N+](=O)[O-] (configuration not stated),,"inconclusive: 50.1 µM [inhibitor, partial curve, poor fit]"
COc1ccc(OCc2cc(C(=O)NCCc3nc(C)c(C)s3)no2)c(Cl)c1,inactive: 8.27%,
CCc1ccc(N(CC(=O)NC(C)(C)C)C(=O)CCC(=O)Nc2ccccn2)cc1,,"inconclusive: 0.447 µM [inhibitor, full curve]"
O=C(NCc1ccc(Cl)cc1)C1CCCN(c2ncnc3c2nc2n3CCCCC2)C1 (configuration not stated),inactive: -19.5%,
COc1ccc(S(=O)(=O)N2CC(=O)Nc3ccccc32)cc1Cl,,active: 6.31 µM
O=C(O)c1sccc1S(=O)(=O)c1ccccc1,,"inconclusive: 39.8 µM [inhibitor, single point]"
Cc1ccc(S(=O)(=O)N(Cc2cccnc2)C2CC2)cc1F,inactive: 4.81%,
CC[C@@]1(O)C(=O)OCc2c1cc1n(c2=O)Cc2cc3c(N)cccc3nc2-1,inactive: -1.62%,
O=C(NC(=S)N(Cc1ccccc1)c1ccccn1)C1CC1,,"inconclusive: 50.1 µM [inhibitor, partial curve, poor fit]"
O=C(c1ccc(=O)oc1)N1CCOCC1,,"inconclusive: 44.7 µM [inhibitor, partial curve, poor fit]"
CN(CCNC(=O)c1c[nH]c2c1ccc1ccccc12)CCNC(=O)c1c[nH]c2c1ccc1ccccc12,,"inconclusive: 50.1 µM [inhibitor, partial curve, poor fit]"
CC(Nc1nc(C(F)(F)F)nc2ccccc12)c1cccs1 (configuration not stated),,"inconclusive: 112 µM [inhibitor, partial curve, poor fit]"
Cc1nc2cc(-c3ccccc3)nn2c(C)c1CCC(=O)N1CCN(c2ccccc2)CC1,,"inconclusive: 112 µM [inhibitor, partial curve, poor fit]"
O=C(CN1C(=O)C(=O)N(C2CCCC2)C1=O)Nc1ccc(OC(F)F)cc1,,"inconclusive: 39.8 µM [inhibitor, partial curve]"
CCOc1cccc(C(=O)Nc2cccc(-c3nnc(-c4ccccc4)o3)c2)c1,inactive: -6.4%,
O=C1Nc2ccccc2C12CCN(c1cc(C3CC(O)C3)ncn1)CC2 (configuration not stated),inactive: 52.1%,
CC(C)n1c(O)c(N=Nc2ccc(Cl)nn2)c2ccccc21,inactive: -6.1%,
CN(Cc1nc2ccccc2n1C(F)F)S(=O)(=O)c1ccc(F)cc1,,"inconclusive: 0.0794 µM [inhibitor, full curve, poor fit]"

# Reprinted at random: 2 entries already listed.
SMILES,"activity change, negative = inhibition",Potency
O=C(O)c1sccc1S(=O)(=O)c1ccccc1,,"inconclusive: 39.8 µM [inhibitor, single point]"
O=C(CN1C(=O)C(=O)N(C2CCCC2)C1=O)Nc1ccc(OC(F)F)cc1,,"inconclusive: 39.8 µM [inhibitor, partial curve]"

# Remaining list, next part.

SMILES,"activity change, negative = inhibition",Potency
CN(C(=O)c1ccc(NC(=O)Cc2cccc(NC(=O)C3CCN(C(=O)c4ccccc4)CC3)c2)cc1)C1CC1,,"inconclusive: 35.5 µM [inhibitor, single point]"
COc1ccc(NC(=O)c2cccc3c(-c4cccnc4)coc23)cc1,inactive: -11.9%,
C[C@@H](NC(=O)C1CCCCC1)c1c(-c2ccc(F)cc2)noc1C(=O)O,,"inconclusive: 25.1 µM [inhibitor, full curve]"
O=C(O)CSc1c(-c2cccs2)[nH]c2ccccc12,,"inconclusive: 44.7 µM [inhibitor, partial curve, poor fit]"
Clc1ccccc1-c1nc(NCc2cccnc2)c2ccccc2n1,,"inconclusive: 44.7 µM [inhibitor, partial curve, poor fit]"
Cc1ccccc1C(=O)N1CCC(C(=O)Nc2ccc(S(=O)(=O)N3CCOCC3)cc2)CC1,inactive: -3.69%,
CCc1nc2ccc(C(=O)NCCNC(C)=O)cn2c1N(C)Cc1ccc(OC)cc1,inactive: -28.2%,
CC(C)c1ccc(CN2CCN(S(=O)(=O)c3ccc(Cl)s3)CC2)cc1,,"inconclusive: 126 µM [inhibitor, single point]"
CN1CCN(c2ncnc3ccc(-c4ccccc4Cl)cc23)CC1,inactive: -11.5%,
CN1CC(=O)N(C2CCNCC2)Cc2c1ncnc2N(C)Cc1ccc(F)cc1,,active: 8.91 µM
COc1ccc(CN[C@@H]2C=C[C@@H](c3c(C)nn(-c4ccccc4)c3C)C2)cc1,,"inconclusive: 7.94 µM [inhibitor, full curve, poor fit]"
COc1ccccc1C1CCN(Cc2c(C)[nH]c3ccccc23)CC1,,"inconclusive: 100 µM [inhibitor, single point]"
COc1cc(C(=O)N/C(=C\c2cn(C)c3ccccc23)C(=O)NCCO)cc(OC)c1OC,,"inconclusive: 50.1 µM [inhibitor, partial curve, poor fit]"
Cc1cnc2c(c1SCCN1CCOCC1)c(=O)n(C)c(=O)n2C,inactive: -22.1%,
Cc1oc(-c2nc3ccccc3n2C)cc1C(=O)c1ccccc1,,"inconclusive: 31.6 µM [inhibitor, partial curve, poor fit]"
O=C1[C@H]2[C@@H](c3ccccc3)N[C@]3(CCCN(Cc4ccc(Cl)cc4)C3=O)[C@H]2C(=O)N1Cc1ccccc1,,active: 7.94 µM
COc1ccc(C)cc1NCc1cccc(OC)c1OC,,"inconclusive: 0.708 µM [inhibitor, full curve, poor fit]"
CC(C)(C)c1ccc(C2C3=C(CCCC3=O)NC3=C2C(=O)c2ccccc23)cc1 (configuration not stated),,"inconclusive: 56.2 µM [inhibitor, partial curve, poor fit]"
Cc1ccc(C)c(NC(=O)c2cc(S(=O)(=O)NCCC3=CCCCC3)ccc2F)c1,,"inconclusive: 126 µM [inhibitor, partial curve, poor fit]"
CCc1nnc(NC(=O)CSc2ccc(-c3ccc(C)cc3)nn2)s1,inactive: -4.17%,
Cc1cccc(-c2cccc3[nH]c4c(c23)CCN2C(=O)[C@H]3[C@H](C)ON(C)[C@H]3C[C@@H]42)c1,,"inconclusive: 28.2 µM [inhibitor, partial curve, poor fit]"
